# PubChem BioAssay AID662 (National Center for Advancing Translational Sciences (NCATS), 2007)
# The list shows a part of the results. Further columns of the screen follow, without active or inactive calls. Compounds called inactive in the main read-out are mostly missing here. Words in brackets tell the shape of the fitted curve; partial curves, single points and poor fits give uncertain potencies.
# Experiment: Cell signaling CRE-BLA (Fsk stim)
# Conditions: CHO CRE-bla reporter (cAMP response element driving beta-lactamase), forskolin EC10, beta-lactamase ratio; measured here: 460 nm blue channel
# Outline: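 Reporter-gene assay: CHO cells with beta-lactamase behind cAMP responsive elements, co-treated with compound and EC10 NKH 477 for 3 hours at 37 degrees Celsius. Activity came from the 460/530 nm CCF4 emission ratio.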
row,Compound,AC50
1,CN(C)c1nc(SCCOC(=O)Nc2ccccc2)nc(N(C)C)n1,"10 µM [rising, partial curve]"
2,N#Cc1sc2nc3c(c(-c4ccco4)c2c1N)CCCC3,"5.01 µM [falling, full curve]"
3,CC1CN(C(=O)CSc2ncnc3sccc23)CC(C)O1 (stereo unspecified),"2.51 µM [falling, partial curve]"
4,CN(C)c1ncc2ncc(=O)n(Cc3ccc(F)cc3)c2n1,"12.6 µM [rising, partial curve]"
5,O=C1C2=C(Nc3ccccc3SC2c2ccco2)c2ccccc21 (stereo unspecified),"10 µM [falling, single point]"
6,NC(=O)c1cnn2c1NC(c1ccc(F)cc1)CC2C(F)(F)F (stereo unspecified),"25.1 µM [rising, single point]"
7,O=C(Nc1nccs1)c1cccc(S(=O)(=O)N2CCOCC2)c1,"0.316 µM [falling, full curve]"
8,CCN1CCc2c(sc(NC(=O)c3ccc(S(=O)(=O)N4CCOCC4)cc3)c2C(=O)OC)C1,"12.6 µM [rising, single point]"
9,CCc1nc2ccccc2c(C(=O)OCC(=O)NCCCN2CCCC2=O)c1C,"7.94 µM [rising, partial curve]"
10,CC(=O)c1sc2nc(SCC(=O)N3CCCCC3)[nH]c(=O)c2c1C,"12.6 µM [falling, partial curve]"
11,COc1ccc(-n2nnnc2SCC(=O)Nc2ccc3c(c2)OCCO3)cc1OC,"12.6 µM [rising, partial curve]"
12,C=C(CO)[C@H]1Cc2c(ccc3c(=O)c4c(oc23)COc2cc(OC)c(OC)cc2-4)O1,"2 µM [rising, partial curve, poor fit]"
13,CC(C)(C)N(Cc1ccccc1)C(=O)c1ccc2c(c1)OCCO2,"7.94 µM [rising, partial curve, poor fit]"
14,CCNc1cccc2c1C(=O)N(C)C2=O,"12.6 µM [rising, partial curve]"
15,CCN(CC)S(=O)(=O)c1cccc(C(=O)Nc2nc3cc4c(cc3s2)OCCO4)c1,"0.00398 µM [falling, full curve, poor fit]"
16,CC(=O)N1CCCc2cc(S(=O)(=O)N3CCc4ccccc4C3)ccc21,"5.01 µM [rising, single point]"
17,COc1ccccc1OCc1nc(C#N)c(N2CC(C)CC(C)C2)o1 (stereo unspecified),"10 µM [rising, partial curve]"
18,O=S(=O)(Nc1ccn(-c2ccccc2)n1)c1ccc(Br)cc1,"12.6 µM [falling, single point]"
19,CNC(=O)[C@H]1O[C@H](n2cnc3c(NCc4cccc(I)c4)ncnc32)[C@@H](O)[C@@H]1O,"31.6 µM [rising, partial curve, poor fit]"
20,COc1ccccc1N1CCN(C(=O)CSc2nnc(NC(=O)C3CC3)s2)CC1,"0.00398 µM [falling, full curve, poor fit]"
21,COC(=O)c1ccc(OCC2c3cc(OC)c(OC)cc3CCN2C(=O)c2ccco2)cc1 (stereo unspecified),"0.316 µM [rising, full curve]"
22,COc1ccc(CNc2ccnc(-c3cccnc3)n2)c(OC)c1,"10 µM [rising, partial curve]"

row,Compound,AC50
1,Cc1ccc(N2CCCCn3c2nc2c3c(=O)n(CC(=O)O)c(=O)n2C)cc1,"0.158 µM [falling, single point]"
2,CCOc1ccc(C2C=C(c3ccc(C)cc3)Nc3nnnn32)cc1 (stereo unspecified),"12.6 µM [rising, single point]"
3,CN(C)Cc1ccccc1-c1nc(N2CCOCC2)c2ccccc2n1,"6.31 µM [rising, partial curve]"
4,COc1ncc2nc(-c3cc(F)cc(F)c3)c(=O)n(-c3ccccc3)c2n1,"25.1 µM [rising, partial curve]"
5,Cn1c(=O)c(-c2cc(F)cc(F)c2)nc2cnc(Nc3ccccc3)nc21,"0.631 µM [rising, full curve]"
6,CCc1ccc(-c2nc(CN3CCC(C(=O)NCc4ccccc4OC)CC3)c(C)o2)cc1,"7.94 µM [falling, partial curve]"
7,CCOC(=O)N1CCN(C(=O)CCn2nc(-c3ccccc3)ccc2=O)CC1,"0.1 µM [falling, full curve, poor fit]"
8,COc1ccc(-n2nc(C(=O)NCC(=O)NCc3ccco3)c3ccccc3c2=O)cc1Cl,"0.00398 µM [falling, full curve, poor fit]"
9,COc1ccc(NC(=O)N2CCCC(c3nc(-c4ccc(C(C)C)cc4)no3)C2)cc1 (stereo unspecified),"12.6 µM [falling, partial curve, poor fit]"
10,COC(=O)c1ccc(CSc2ccc3nnc(-c4ccccn4)n3n2)o1,"10 µM [rising, partial curve]"
11,CCCC(=O)Nc1ccc(NC(=O)C2CC2)cn1,"25.1 µM [falling, single point]"
12,O=C(Nc1ccc2c(c1)OCCO2)C1CCN(S(=O)(=O)c2cccs2)CC1,"0.631 µM [falling, partial curve]"
13,Cc1ccc(C)c2[nH]c(=O)c(CCNC(=O)c3ccc(S(=O)(=O)N(C)C)cc3)cc12,"25.1 µM [rising, single point]"
14,Cc1cc(NC(=O)C2CCCCC2C(=O)O)no1 (stereo unspecified),"2 µM [rising, partial curve]"
15,CC(=NCc1ccco1)c1c(C)[nH]n(-c2nc3ccccc3s2)c1=O,"10 µM [rising, single point]"
16,Cc1cc(/C=N/n2cnnc2)c(C)n1-c1cc(Cl)ccc1Cl,"3.16 µM [rising, partial curve]"
17,Nn1c(SCC(=O)Nc2ccc(F)cc2)nnc1-c1ccccn1,"2.51 µM [falling, full curve, poor fit]"
18,Cc1nc2nc[nH]n2c(=O)c1NC(=O)c1c(-c2ccccc2Cl)noc1C,"0.01 µM [falling, full curve, poor fit]"
19,CCCCCCn1c(N2CCN(c3cccc(Cl)c3)CC2)nc2c1c(=O)[nH]c(=O)n2C,"6.31 µM [falling, partial curve]"
20,CCCCCCC(=O)c1c(C)[nH]c(C(=O)OCC)c1C,"15.8 µM [rising, single point]"
21,COC(=O)C1=CNC=C(C(=O)OC)C1c1ccccc1Cl,"10 µM [rising, partial curve]"
22,Cc1ccccc1-c1cncnc1N1CCN(C)CC1,"5.01 µM [rising, single point]"

# Shown as tab-separated lines: part of the list above.
row	Compound	AC50
1	Cc1ccc(N2CCCCn3c2nc2c3c(=O)n(CC(=O)O)c(=O)n2C)cc1	0.158 µM [falling, single point]
2	CCOc1ccc(C2C=C(c3ccc(C)cc3)Nc3nnnn32)cc1 (stereo unspecified)	12.6 µM [rising, single point]
3	CN(C)Cc1ccccc1-c1nc(N2CCOCC2)c2ccccc2n1	6.31 µM [rising, partial curve]
4	COc1ncc2nc(-c3cc(F)cc(F)c3)c(=O)n(-c3ccccc3)c2n1	25.1 µM [rising, partial curve]
5	Cn1c(=O)c(-c2cc(F)cc(F)c2)nc2cnc(Nc3ccccc3)nc21	0.631 µM [rising, full curve]
6	CCc1ccc(-c2nc(CN3CCC(C(=O)NCc4ccccc4OC)CC3)c(C)o2)cc1	7.94 µM [falling, partial curve]
7	CCOC(=O)N1CCN(C(=O)CCn2nc(-c3ccccc3)ccc2=O)CC1	0.1 µM [falling, full curve, poor fit]
8	COc1ccc(-n2nc(C(=O)NCC(=O)NCc3ccco3)c3ccccc3c2=O)cc1Cl	0.00398 µM [falling, full curve, poor fit]
9	COc1ccc(NC(=O)N2CCCC(c3nc(-c4ccc(C(C)C)cc4)no3)C2)cc1 (stereo unspecified)	12.6 µM [falling, partial curve, poor fit]
10	COC(=O)c1ccc(CSc2ccc3nnc(-c4ccccn4)n3n2)o1	10 µM [rising, partial curve]
11	CCCC(=O)Nc1ccc(NC(=O)C2CC2)cn1	25.1 µM [falling, single point]
12	O=C(Nc1ccc2c(c1)OCCO2)C1CCN(S(=O)(=O)c2cccs2)CC1	0.631 µM [falling, partial curve]
13	Cc1ccc(C)c2[nH]c(=O)c(CCNC(=O)c3ccc(S(=O)(=O)N(C)C)cc3)cc12	25.1 µM [rising, single point]
14	Cc1cc(NC(=O)C2CCCCC2C(=O)O)no1 (stereo unspecified)	2 µM [rising, partial curve]
15	CC(=NCc1ccco1)c1c(C)[nH]n(-c2nc3ccccc3s2)c1=O	10 µM [rising, single point]
16	Cc1cc(/C=N/n2cnnc2)c(C)n1-c1cc(Cl)ccc1Cl	3.16 µM [rising, partial curve]
17	Nn1c(SCC(=O)Nc2ccc(F)cc2)nnc1-c1ccccn1	2.51 µM [falling, full curve, poor fit]
18	Cc1nc2nc[nH]n2c(=O)c1NC(=O)c1c(-c2ccccc2Cl)noc1C	0.01 µM [falling, full curve, poor fit]

# (further entries)

row,Compound,AC50
1,Cc1cc(C)n(-c2nc3ccccc3c(=O)n2OCc2ccc(F)cc2)n1,"1.58 µM [falling, partial curve]"
2,COc1cccc(-n2nnnc2SCC(=O)Nc2cccc(C)n2)c1,"3.16 µM [falling, single point]"
3,Cc1noc(C)c1-c1ccc2ncnc(N(C)Cc3ccco3)c2c1,"5.01 µM [rising, partial curve]"
4,Cc1nc(SCC(=O)Nc2ccccc2)c2oc3ccccc3c2n1,"1.26 µM [rising, partial curve]"
5,COc1ccc(CCNC(=O)Cn2nnc(-c3cccc(OC)c3OC)n2)cc1OC,"12.6 µM [rising, partial curve]"
6,CN1CCN(c2ncc3nc(-c4cccs4)c(=O)n(Cc4cccs4)c3n2)CC1,"1.26 µM [rising, full curve]"
7,O=C(COC(=O)c1cccs1)c1ccccc1,"5.01 µM [falling, single point]"
8,CS(=O)(=O)c1cccc(C(=O)Oc2ccccc2)c1,"5.01 µM [falling, single point]"
9,COC(=O)c1ccc2c(c1)NC(=O)C(N1CCCC1)S2 (stereo unspecified),"25.1 µM [rising, single point]"
10,O=C(CSc1nnc(-c2ccncc2)o1)Nc1ccccc1Cl,"25.1 µM [rising, single point]"
11,CN(C)C=Nc1ncc2c3ccccc3n(Cc3ccccc3)c2c1C#N,"12.6 µM [rising, single point]"
12,c1ccc(CNc2nc(-c3cccnc3)nc3ccccc23)cc1,"5.01 µM [rising, partial curve]"
13,N=C(N=C(N)N)N1CCOCC1,"10 µM [rising, partial curve]"
14,COc1ccc(Oc2ncc3nc(CCc4ccccc4)c(=O)n(C[C@H]4CCCO4)c3n2)cc1,"0.501 µM [falling, single point]"
15,CCSC1(SCC)N=C(N)C2(C#N)C(c3ccc(OC)c(OC)c3OC)C12C#N (stereo unspecified),"10 µM [falling, partial curve]"
16,Cc1ccccc1OCC(=O)Nc1ccc(N2CCN(C(=O)C(C)C)CC2)c(Cl)c1,"15.8 µM [falling, single point]"
17,CN(C)C(=O)c1ccc(-c2nc(N(C)Cc3ccco3)c3ccccc3n2)cc1,"12.6 µM [rising, partial curve]"
18,c1ccc(-c2nnc(CSc3nncs3)o2)cc1,"3.98 µM [falling, single point]"
19,CC(C)C[C@@H](CC(=O)N[C@H](CC(=O)N[C@@H]1CCCC[C@H]1C(=O)N[C@H](CC(=O)N[C@@H](CCC(=O)O)CC(=O)O)CC(C)C)C(C)C)NC(=O)[C@@H]1CCCC[C@H]1N,"10 µM [falling, single point]"
20,CCOC(=O)c1c(C)oc2cc(Br)c(OC)cc12,"15.8 µM [rising, single point]"
21,COc1ccc2nc(N3CCC(C)CC3)c(C#N)cc2c1,"10 µM [rising, partial curve]"
22,CCOC(=O)N1CCN(C(=O)c2cccc(-n3c(=S)[nH]c4cc(Cl)ccc4c3=O)c2)CC1,"12.6 µM [rising, single point]"
